Laboratory results reported in PMC7427093, “Revising the mechanism of p75NTR activation: intrinsically monomeric state of death domains invokes the "helper" hypothesis” (Scientific Reports, 2020).
These are yes or no findings as the source states them, for the method shown.

Columns and labels:
[1] = biological target: human p75NTR death domain (hP75DD), deamidated at N352 (human) (UniProt P08138); test: NMR rotational and translational diffusion; isolated death domains in 50 mM NaPi pH 7.0 with reducing agent, various concentrations up to 1 mM, 30 C; rotational correlation time from cross-correlated relaxation, self-diffusion by PGSTE; both purified
[2] = biological target: T1, human p75NTR death domain (hP75DD), residues 330-427 (human), P08138; test: dynamic light scattering; hP75DD, protein concentration up to 300 μM; both purified; conditions: remark: other sources report otherwise
T1 chain: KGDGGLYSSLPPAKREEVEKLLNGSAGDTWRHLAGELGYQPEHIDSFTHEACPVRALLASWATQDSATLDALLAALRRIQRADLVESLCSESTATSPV

[3] = biological target: T1, human p75NTR death domain (hP75DD), …; test: NMR 1H,15N-HSQC, populations of the two states on dilution and change of buffer; hP75DD in phosphate buffer, changed to HEPES, threefold dilution down to 300 μM; both purified; conditions: remark: other sources report otherwise
[4] = biological target: T1, human p75NTR death domain (hP75DD), …; test: NMR rotational and translational diffusion; isolated death domains in 50 mM NaPi pH 7.0 with reducing agent, various concentrations up to 1 mM, 30 C; rotational correlation time from cross-correlated relaxation, self-diffusion by PGSTE; both purified; conditions: remark: other sources report otherwise
[5] = biological target: rat p75NTR death domain (rP75DD), fragment 331-425 (rat) (UniProt P07174); test: as above

“human p75NTR death domain (hP75DD), deamidated at N352 (from UniProt P08138 330-427) (domain or fragment)” was tested, and the binding [1] was “no binding (tested: 1 mM)”.

B1: human p75NTR death domain (hP75DD), residues 330-427, P08138 330-427 (domain or fragment)
chain: KGDGGLYSSLPPAKREEVEKLLNGSAGDTWRHLAGELGYQPEHIDSFTHEACPVRALLASWATQDSATLDALLAALRRIQRADLVESLCSESTATSPV
B1 was tested, and the binding [2] was “no binding (tested: up to 300 μM)”, the binding [3] was “no binding” and the binding [4] was “no binding (tested: 1 mM)”.

B2: rat p75NTR death domain (rP75DD), fragment 331-425 (domain or fragment, UniProt P07174 331-425)
chain: KGDGNLYSSLPLTKREEVEKLLNGDTWRHLAGELGYQPEHIDSFTHEACPVRALLASWGAQDSATLDALLAALRRIQRADIVESLCSESTATSPV
With B2 the binding [5] was “no binding (tested: 1 mM)”.
